Data as given in the supplement of paper PMC6411743.
± gives the standard deviation of the averaged measurements. The list shows a part of the results, in another mix than the full data.

Key:
Assay in all cases: NP40-soluble protein abundance relative to vehicle (solubility fold change) (ratio); higher = more soluble protein in presence of ATP
STRBP = target: T1, STRBP (UniProt Q96SI9)
T1 sequence (whole entry): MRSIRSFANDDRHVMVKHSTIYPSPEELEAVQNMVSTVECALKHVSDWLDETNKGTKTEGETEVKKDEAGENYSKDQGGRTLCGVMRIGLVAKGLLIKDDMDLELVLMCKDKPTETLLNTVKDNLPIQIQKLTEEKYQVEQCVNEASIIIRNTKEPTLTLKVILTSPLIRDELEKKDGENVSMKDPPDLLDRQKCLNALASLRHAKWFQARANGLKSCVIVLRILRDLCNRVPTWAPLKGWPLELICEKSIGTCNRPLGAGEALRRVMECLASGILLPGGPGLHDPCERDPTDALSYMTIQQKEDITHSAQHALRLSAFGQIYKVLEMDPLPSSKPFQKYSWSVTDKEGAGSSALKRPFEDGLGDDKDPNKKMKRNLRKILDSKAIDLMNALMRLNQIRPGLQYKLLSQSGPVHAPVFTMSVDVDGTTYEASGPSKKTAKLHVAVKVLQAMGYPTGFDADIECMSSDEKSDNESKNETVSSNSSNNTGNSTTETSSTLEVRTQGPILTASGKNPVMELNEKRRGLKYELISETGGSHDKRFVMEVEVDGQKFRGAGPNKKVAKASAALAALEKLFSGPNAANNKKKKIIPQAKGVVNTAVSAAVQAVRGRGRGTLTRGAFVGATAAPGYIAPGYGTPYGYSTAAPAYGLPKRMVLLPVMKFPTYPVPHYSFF
Outline: (§1)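 In three independent experiments, Jurkat crude lysate made by Dounce homogenisation was treated for 10 min at room temperature and then 3 min at 37 °C with eight concentrations ranging from 0.1 to 10 mM. It was then solubilised with 0.8% NP40 plus benzonase for 60 min at 4 °C and ultracentrifuged. The supernatant was TMT-labelled for LC-MS/MS, and each value is the fold change against the detergent-processed vehicle for the same replicate, using vsn-normalised intensities.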

TP53RK = target: T2, TP53RK (UniProt Q96S44)
T2 sequence (whole entry): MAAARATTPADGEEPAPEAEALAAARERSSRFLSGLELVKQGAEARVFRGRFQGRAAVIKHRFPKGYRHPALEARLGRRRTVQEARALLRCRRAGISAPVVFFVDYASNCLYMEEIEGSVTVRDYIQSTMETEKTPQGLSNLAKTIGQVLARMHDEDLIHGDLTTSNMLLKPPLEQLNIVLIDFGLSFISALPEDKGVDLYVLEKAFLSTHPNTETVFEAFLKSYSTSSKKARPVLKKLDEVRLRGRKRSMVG
Outline: as §1

[1] = target: T3, UniProt Q96BZ9 and related entries
T3 sequence (whole entry): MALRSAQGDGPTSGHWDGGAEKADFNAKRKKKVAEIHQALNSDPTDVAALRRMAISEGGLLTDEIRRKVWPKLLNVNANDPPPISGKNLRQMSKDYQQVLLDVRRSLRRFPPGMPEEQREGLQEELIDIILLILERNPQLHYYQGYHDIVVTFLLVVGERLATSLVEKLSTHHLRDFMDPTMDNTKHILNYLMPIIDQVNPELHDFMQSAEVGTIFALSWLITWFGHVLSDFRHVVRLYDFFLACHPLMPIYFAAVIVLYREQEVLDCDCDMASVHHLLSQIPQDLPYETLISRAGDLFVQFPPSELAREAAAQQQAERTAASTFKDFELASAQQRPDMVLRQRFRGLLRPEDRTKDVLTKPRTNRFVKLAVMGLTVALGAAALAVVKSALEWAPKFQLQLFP
Outline: as §1

[2] = target: T4, UniProt Q96F46 and related entries
T4 sequence (whole entry): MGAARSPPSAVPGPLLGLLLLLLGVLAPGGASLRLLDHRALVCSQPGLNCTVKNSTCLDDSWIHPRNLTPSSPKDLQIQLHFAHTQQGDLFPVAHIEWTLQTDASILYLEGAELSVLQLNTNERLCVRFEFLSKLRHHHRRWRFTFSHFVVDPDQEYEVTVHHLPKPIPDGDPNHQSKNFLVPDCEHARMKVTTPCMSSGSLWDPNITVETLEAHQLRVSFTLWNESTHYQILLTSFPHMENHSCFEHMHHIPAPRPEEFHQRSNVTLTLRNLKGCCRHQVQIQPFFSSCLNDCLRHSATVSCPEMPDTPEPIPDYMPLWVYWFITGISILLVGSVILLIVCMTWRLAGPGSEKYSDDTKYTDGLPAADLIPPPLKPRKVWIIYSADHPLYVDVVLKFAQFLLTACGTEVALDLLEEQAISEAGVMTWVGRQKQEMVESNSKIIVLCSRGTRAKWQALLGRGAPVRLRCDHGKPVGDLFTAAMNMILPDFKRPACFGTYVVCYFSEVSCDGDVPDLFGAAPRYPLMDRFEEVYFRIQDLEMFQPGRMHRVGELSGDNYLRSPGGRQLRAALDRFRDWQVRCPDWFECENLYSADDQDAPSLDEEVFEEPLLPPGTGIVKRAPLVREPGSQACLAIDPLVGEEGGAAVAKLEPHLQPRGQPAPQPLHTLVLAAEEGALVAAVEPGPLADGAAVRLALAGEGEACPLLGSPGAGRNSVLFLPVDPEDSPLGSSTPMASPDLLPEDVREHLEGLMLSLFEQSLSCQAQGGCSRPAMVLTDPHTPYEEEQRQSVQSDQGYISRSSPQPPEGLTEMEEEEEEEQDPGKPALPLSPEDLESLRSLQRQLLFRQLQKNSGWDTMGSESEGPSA
Outline: as §1

[3] = target: T5, UniProt Q96FC9 and related entries
T5 sequence (whole entry): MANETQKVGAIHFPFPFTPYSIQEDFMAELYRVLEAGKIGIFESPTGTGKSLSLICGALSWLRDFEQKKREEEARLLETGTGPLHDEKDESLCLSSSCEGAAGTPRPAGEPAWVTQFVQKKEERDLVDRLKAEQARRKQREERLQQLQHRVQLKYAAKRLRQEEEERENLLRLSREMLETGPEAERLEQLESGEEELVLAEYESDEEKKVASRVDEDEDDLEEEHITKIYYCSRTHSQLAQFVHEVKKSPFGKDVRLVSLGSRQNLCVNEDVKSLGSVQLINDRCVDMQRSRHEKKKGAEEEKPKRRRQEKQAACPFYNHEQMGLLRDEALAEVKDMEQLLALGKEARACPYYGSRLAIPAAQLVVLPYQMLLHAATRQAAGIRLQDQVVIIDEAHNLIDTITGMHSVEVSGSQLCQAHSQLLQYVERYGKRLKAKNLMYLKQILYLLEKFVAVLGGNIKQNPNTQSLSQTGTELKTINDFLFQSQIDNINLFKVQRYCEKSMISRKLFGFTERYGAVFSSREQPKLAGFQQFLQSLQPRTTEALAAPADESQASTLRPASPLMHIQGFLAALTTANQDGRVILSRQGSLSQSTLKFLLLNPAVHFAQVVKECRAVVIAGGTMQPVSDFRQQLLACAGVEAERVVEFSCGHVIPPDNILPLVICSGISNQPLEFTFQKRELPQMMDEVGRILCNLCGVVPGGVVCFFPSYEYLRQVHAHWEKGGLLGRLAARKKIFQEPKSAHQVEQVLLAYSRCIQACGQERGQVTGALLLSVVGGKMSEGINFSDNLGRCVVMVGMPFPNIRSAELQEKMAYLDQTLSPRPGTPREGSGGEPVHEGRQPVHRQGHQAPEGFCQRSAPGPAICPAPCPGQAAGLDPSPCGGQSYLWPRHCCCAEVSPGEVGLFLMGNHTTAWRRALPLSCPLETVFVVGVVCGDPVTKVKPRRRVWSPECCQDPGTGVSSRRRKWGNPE
Outline: as §1

SMILES: Nc1ncnc2c1ncn2[C@@H]1O[C@H](COP(=O)(O)OP(=O)(O)OP(=O)(O)O)[C@@H](O)[C@H]1O [adenosine triphosphate]
- NP40-soluble protein abundance (STRBP; concentration: 1mM): 1.01 ± 0.044
- NP40-soluble protein abundance (STRBP; concentration: 2mM): 1.05 ± 0.066
- NP40-soluble protein abundance (STRBP; concentration: 4mM): 1.08 ± 0.058
- NP40-soluble protein abundance (STRBP; concentration: 6mM): 1.06 ± 0.023
- NP40-soluble protein abundance (STRBP; concentration: 8mM): 1.16 ± 0.09
- NP40-soluble protein abundance (STRBP; concentration: 10mM): 1.24 ± 0.1
- NP40-soluble protein abundance (TP53RK; concentration: 1mM): 0.9403 ± 0.009
- NP40-soluble protein abundance (TP53RK; concentration: 2mM): 0.9552 ± 0.0089
- NP40-soluble protein abundance (TP53RK; concentration: 4mM): 0.903 ± 0.036
- NP40-soluble protein abundance (TP53RK; concentration: 6mM): 0.921 ± 0.057
- NP40-soluble protein abundance (TP53RK; concentration: 8mM): 0.9386 ± 0.0064
- NP40-soluble protein abundance (TP53RK; concentration: 10mM): 0.911 ± 0.014
- NP40-soluble protein abundance ([1]; concentration: 1mM): 0.982 ± 0.022
- NP40-soluble protein abundance ([1]; concentration: 2mM): 0.941 ± 0.1
- NP40-soluble protein abundance ([1]; concentration: 4mM): 0.937 ± 0.15
- NP40-soluble protein abundance ([1]; concentration: 6mM): 1 ± 0.08
- NP40-soluble protein abundance ([1]; concentration: 8mM): 0.939 ± 0.065
- NP40-soluble protein abundance ([1]; concentration: 10mM): 0.944 ± 0.091
- NP40-soluble protein abundance ([2]; concentration: 1mM): 0.934 ± 0.073
- NP40-soluble protein abundance ([2]; concentration: 2mM): 0.969 ± 0.043
- NP40-soluble protein abundance ([2]; concentration: 4mM): 0.974 ± 0.078
- NP40-soluble protein abundance ([2]; concentration: 6mM): 0.9 ± 0.035
- NP40-soluble protein abundance ([2]; concentration: 8mM): 0.964 ± 0.068
- NP40-soluble protein abundance ([2]; concentration: 10mM): 0.966 ± 0.03
- NP40-soluble protein abundance ([3]; concentration: 1mM): 1.08 ± 0.11
- NP40-soluble protein abundance ([3]; concentration: 2mM): 1.01 ± 0.088
- NP40-soluble protein abundance ([3]; concentration: 4mM): 1.1 ± 0.022
- NP40-soluble protein abundance ([3]; concentration: 6mM): 0.998 ± 0.076
- NP40-soluble protein abundance ([3]; concentration: 8mM): 1.03 ± 0.06
- NP40-soluble protein abundance ([3]; concentration: 10mM): 0.988 ± 0.086
